US20040024056A1, “Dihydrofuran cyclic tanshinones used in treating hyperammonemia and hepatic encephalopathy” (priority 2001, published 2004)

Tests used:
[1] = In vitro reaction with ammonia (TLC monitoring, product isolation); details: 0.5 mmol each in water/alcohol, 37±5° C.
[2] = In vitro reaction with phenethylamine (TLC monitoring, product isolation); details: 0.5 mmol each in water/alcohol, 37±5° C.

**Q.** Which “In vitro reaction with ammonia” value [1] does the source give for `C[C@H]1COC2=C1C(=O)C(=O)c1c2ccc2c1CCCC2(C)C` [Cryptotanshinone, 1,6,6-trimethyl-1,2,6,7,8,9-hexahydrophenanthrene[1,2-b]furan-10,11-dione] here?
**A.** can react with ammonia in vitro

**Q.** What about the “In vitro reaction with phenethylamine” value [2] of the same compound?
**A.** can react with phenethylamine in vitro

**Q.** Which “In vitro reaction with ammonia” value [1] does the source give for `Cc1cccc2c3c(ccc12)C1=C(C(=O)C3=O)C(C)CO1` (stereo not drawn) [Dihydortanshinone I, 1,6-dimethyl-1,2-dihydrophenanthrene[1,2-b]furan-10,11-dione] here?
**A.** can react with ammonia in vitro

**Q.** And the “In vitro reaction with phenethylamine” value [2]?
**A.** can react with phenethylamine in vitro

**Q.** For `Cc1coc2c1C(=O)C(=O)c1c-2ccc2c1CCCC2(C)C` [Tanshinone IIA], which “In vitro reaction with ammonia” value [1] is on record?
**A.** No apparent reaction

**Q.** And the “In vitro reaction with phenethylamine” value [2]?
**A.** No apparent reaction
